Results are given in words; binding and its absence hold for the method and conditions named.
B1: B09-57 IgG (antibody, V domains shown)
VH: QVQLVQSGAEVKKPGASVKVSCKASGYTFTDYYIHWVRQATGQGLEWMGWMNPNSGNTGYAQKFQGRVTMTRDTSISTAYMELSSLRSEDTAVYYCARGQGYTHSWGQGTMVTVSS
VL: DIQMTQSPSTLSASVGDRVTITCRASEGIYHWLAWYQQKPGKAPKLLIYKASSLASGVPSRFSGSGSGTEFTLTISSLQPDDFATYYCQQYSNYPPTFGGGTKLEIK
notes: also called B09-GL; anti-c-Met antibody clone B09-GL
B2: RAA22 IgG (antibody, V domains shown)
VH: QVQLVQSGAEVKKPGSSVKVSCKASGGTFSDNDFSWVRQAPGQGLEWMGAIVAVFRTETYAQKFQDRVKITADISTRTTYMELSSLRSEDTAVYYCARRLMSAISGPGAPLLMWGQGTLVTVSS
VL: QSALTQPRSVSGSPGQSVTISCTGTSSDVGGYNYVSWYQQHPGKAPKLMIYDVSKRPSGVPDRFSGSKSGNTASLTISGLQAEDEADYYCSSYTSSDTLEIFGGGTKLTVL
notes: Bivalent parental IgG; Only the variable domains are tied to the parental IgG; also called anti-EGFR antibody clone RAA22
B3: QD6 IgG (antibody, V domains shown)
VH: QVQLVQSGAEVKKPGSSVKVSCKASGGTFSDNDFSWVRQAPGQGLEWMGAIVAVVRTETYAQKFQDRVKITADISTRTTYMELSSLRSEDTAVYYCARRLMSAISGPGAPLLMWGQGTLVTVSS
VL: QSALTQPRSVSGSPGQSVTISCTGTSSDVGGYNYVSWYQQHPGKAPKLMIYDVSERPSGVPDRFSGSKSGNTASLTISGLQAEDEADYYCFSYTSSDTLEIFGGGTKLTVL
notes: Only variable domains are tied to the parental IgG; also called QD06; anti-EGFR antibody clone QD6

Legend:
Ron (CD136) [1] = experiment: ELISA, antigen coated at 1 ug/mL, anti-human Fab-HRP detection, A450 [CD136]
Semaphorin 3a [2] = experiment: ELISA, antigen coated at 1 ug/mL, anti-human Fab-HRP detection, A450
Ron (CD136) [3] = experiment: ELISA, coated antigen (FIG. 3B)
Semaphorin 3a [4] = experiment: ELISA, coated antigen (FIG. 3B)

| Binder | binding (Ron (CD136) [1]) | binding (Semaphorin 3a [2]) | binding (Ron (CD136) [3]) | binding (Semaphorin 3a [4]) |
| --- | --- | --- | --- | --- |
| B1 | no binding (tested: 10 ug/ml) | no binding (tested: 10 ug/ml) | no binding (tested: 10 µg/mL) | no binding (tested: 10 µg/mL) |
| B2 | no binding (tested: 10 ug/ml) | no binding (tested: 10 ug/ml) | no binding (tested: 10 µg/mL) | no binding (tested: 10 µg/mL) |
| B3 | no binding (tested: 10 ug/ml) | no binding (tested: 10 ug/ml) | no binding (tested: 10 µg/mL) | no binding (tested: 10 µg/mL) |

From patent US20240360226A1 (AstraZeneca / MedImmune, published 2024)
